Source: the RNAGym collection of RNA variant scans (doi:10.1126/science.aae0568)
Variants at the background level are over-represented here.

B1: tRNA (parent)
chain: GUUCCGUUGGCGUAAUGGUAACGCGUCUCCCUCCUAAGGAGAAGACUGCGGGUUCGAGUCCCGUACGGAACG

Variants of: B1
Assay: yeast fitness relative to wild type (ratio to wild type); higher = fitter; tRNA-Arg(CCU), competitive growth, 37 C, YPD
Summary of the method: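 A pool of Saccharomyces cerevisiae strains, each with a tRNA-Arg(CCU) gene variant at the native genomic locus, was competed in YPD at 37°C for 24 hours across six parallel replicates. The variants had been chemically synthesised at a 3% per-site mutation rate over 69 sites, and gene amplicons before and after competition were read by 100-nucleotide paired-end sequencing. Darwinian fitness relative to wild type rested on changes in genotype frequencies. Genotypes required ≥ 100 starting reads, and estimates < 0.5 were set to 0.5.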

Variant	yeast fitness
GUUCCGUUCGCGUAAUGGUAACGCGUCUCCCUCCUAAGGAGAAGACUGCGGGUUCGAGACCCGUACGGAACG [G9C U59A]	0.737
GUUCCGUUUGCGUAAUGGUAACGGGUCUCCCUCCUAAGGAGAAGACUGCGGGUUUGAGUCCCGUACAGAACG [G9U C24G C55U G67A]	≤ 0.5
GUUCCGUUUGCGUAAUGGUAACGCGUAUCCCUCCUAAGGAGAAGACUGCGGGUUCGAGUCCCGUACGGAGCG [G9U C27A A70G]	≤ 0.5
GUUCCGUUUGCGUAAUGGUAACGCGUUUACCUCCUAAGGAGAAGACUGCGGGUUCGAGUCCCGUACGGAACG [G9U C27U C29A]	≤ 0.5
GUUCCGUUUGCGUAAUGGUAACGCGUUUACCUCCUAAGGAGAAGACUGGGGGUUCGAGUCCCGUACGGAACG [G9U C27U C29A C49G]	≤ 0.5
GUUCCGUUUGCGUAAUGGUAACGCGUCUCCGUCCUAAGGAGAACACUGCGGGUUCGAGUCCCGUACCGAACG [G9U C31G G44C G67C]	≤ 0.5
GUUCCGUUUGCCUAAUGGUAACGCGUCUCCCUCCUAAGGAGAAGACUGCGGGUUCGAGUCCCAUACGGAACG [G9U G12C G63A]	≤ 0.5
GUUCCGUUGACGUGAUGGUAACGCGUCUCCCCCCUAAGGAGAAGACUGCGGGUUCGAGUCCCGUACGGAACG [G10A A14G U32C]	≤ 0.5
GUUCCGUUGACGUUAUGGUAACGCGUCUCCCUCCUAAGGAGAAGACUGCGGGUGCGAGUCCCGUACGGAACG [G10A A14U U54G]	≤ 0.5
GUUCCGUUGACGUACCGGUAACGCGUCUCCCUCCUACGGAGAAGACUGCAGGAUCGAGUCUCGUACGGAACG [G10A A15C U16C A37C G50A U53A C61U]	≤ 0.5
GUUCCGUUGACGUAUUGGUAACGCGUCUCCCUCCUGAGGAGAAGACGGCGGGUUCGAGUCCCGUUCGGAACG [G10A A15U A36G U47G A65U]	≤ 0.5
GUUCCGUUGACGUAAUGGUGAAGCGUCUCGCUCCUAAGGAGAAGUCUGCGGGUUCGAGUUCCGUACGGAACG [G10A A20G C22A C30G A45U C60U]	≤ 0.5
GUUCCGUUGACGUAAUGGUGACGCGCCUCCCUCCUAAGAAGAAGACUGCGGGUUCGAGUCCCGUACGGAACG [G10A A20G U26C G39A]	≤ 0.5
GUUCCGUUGACGUAAUGGUGACGCGCCUCCCUCCUAAGAAGAAGACUGCCGGUUCGAGUCCCGUACGGAACG [G10A A20G U26C G39A G50C]	≤ 0.5
GUUCCGUUGACGUAAUGGUUACGCGUCUCCCUCCCAAGGAGAAGACUCCGGGUUCGAGUACCAUACGGAACG [G10A A20U U35C G48C C60A G63A]	≤ 0.5
GUUCCGUUGACGUAAUGGUACCGCGUCUCCCUCCUAAGGGGAAGACGGCGGGUUCGAGUCCGGUACGGUACG [G10A A21C A40G U47G C62G A69U]	≤ 0.5
GUUCCGUUGACGUAAUGGUACCGAGUCUCCCUCCUAAGGAGAAGACUGCGGGUUCGAGUCCCGUACGGAACG [G10A A21C C24A]	≤ 0.5
GUUCCGUUGACGUAAUGGUACCGAGUCUCCCUCCUAAGGAGAAGACUGCGGGUUCGAGUCCCGUUCGGCACG [G10A A21C C24A A65U A69C]	≤ 0.5
GUUCCGUUGACGUAAUGGUACCGCGUCUCCCUCCUAAGGAGAAGACUGCGGGUUCGAGUCCCGUAGGGAACG [G10A A21C C66G]	≤ 0.5

Variant	yeast fitness
GUUCCGUUGACGUAAUGGUAACGCGUCUCCCUCCUCAGGAGAAGACUGCGGGUUCGAGUCCCGUACGGAACG [G10A A36C]	≤ 0.5
GUUCCGUUGACGUAAUGGUAACGCGUCUCCCUCCUCAGGAGAAGACUGCGGGUUCGAGUCCCGUACGGACCG [G10A A36C A70C]	≤ 0.5
GUUCCGUUGACGUAAUGGUAACGCGUCUCCCUCCUCAGGAGAAGACUGCGGGUUCGAGUCCCGUACGGAUCG [G10A A36C A70U]	≤ 0.5
GUUCCGUUGACGUAAUGGUAACGCGUCUCCCUCCUCAGGAGAAGACUGCGGGUUCGAGUCCGGUACGGAACG [G10A A36C C62G]	≤ 0.5
GUUCCGUUGACGUAAUGGUAACGCGUCUCCCUCCUGAGGAGAAGACUCCGGGUUCGAGUCCCGUACGGAACG [G10A A36G G48C]	0.691
GUUCCGUUGACGUAAUGGUAACGCGUCUCCCUCCUAGGGAGCAGACUGCGGGUUCGAGUCCCGUACGGAACG [G10A A37G A42C]	≤ 0.5
GUUCCGUUGACGUAAUGGUAACGCGUCUCCCUCCUAAGGAGAAGGCUGCGGGUUCGAGCCCCGUACGGAACG [G10A A45G U59C]	0.616
GUUCCGUUGAAGUACUGGUAACGAGUCUCCCUCAUAAGGAGAAGAGUGCGGGUUCGAGUUGCGUACAGAACG [G10A C11A A15C C24A C34A C46G C60U C61G G67A]	≤ 0.5
GUUCCGUUGAAGUAAUGGUAACGCGUCUCGCUCCUAAGGAGAAGACUGCGGGUUCGAGUCCCGUACGGAACG [G10A C11A C30G]	≤ 0.5
GUUCCGUUGAGGUAAUGGUUACGCGUCUCCUUCCUAAGGAGAAGACUGCGGGUUCGAGUCCCGUACGGAACG [G10A C11G A20U C31U]	≤ 0.5
GUUCCGUUGAUGUAAUGGUAACGCGUCUCCCUCCUGGGGAGAAGACUGCGGGUUCGAGUCCCGUACCGAACG [G10A C11U A36G A37G G67C]	≤ 0.5
GUUCCGUUGACGUAAUGGUAAUGCGUCUCCCUCCUAAGGAGAAGACUGCGGCUCCGAGUCCCGUACGGAACG [G10A C22U G52C U54C]	≤ 0.5
GUUCCGUUGACGUAAUGGUAAUGCGUCUCCCUCCUAAGGAGAAGACCGCGGGUUCGAGUCCCGUACGGAACG [G10A C22U U47C]	≤ 0.5
GUUCCGUUGACGUAAUGGUAACGUGUGUCCCUCCUAAGGAGAAGACUGCGGGUUCGAGUCCCGUACGGAACG [G10A C24U C27G]	≤ 0.5
GUUCCGUUGACGUAAUGGUAACGCGUAUCCCUCCUAGGGAGAAGACUGCGGGUUCGAGUCCCGUACGGAACG [G10A C27A A37G]	≤ 0.5
GUUCCGUUGACGUAAUGGUAACGCGUGUCCCUCCUAAGGAGAAGACUGCGAGUCUGAGUCCCGUCCGGAACG [G10A C27G G51A U54C C55U A65C]	≤ 0.5
GUUCCGUUGACGUAAUGGUAACGCGUGUCCCUCCAAAGGAGAAGUCUGCGGGUUCGAGUCCCGUACAGAACG [G10A C27G U35A A45U G67A]	≤ 0.5
GUUCCGUUGACGUAAUGGUAACGCGUUUCCCUCCUAAGGCGAAGACACCGGGUUCGAGUCUCGUACGGAACG [G10A C27U A40C U47A G48C C61U]	≤ 0.5
GUUCCGUUGACGUAAUGGUAACGCGUUUCCCUCCUAAGGUGAAGACUGCGGGUUCGAGUCCCGUACGGAACG [G10A C27U A40U]	≤ 0.5
